Assay results: the supplement of paper PMC12819154, “High-throughput peptide-centric local stability assay extends protein–ligand identification to membrane proteins, tissues and bacteria” (Nature Structural & Molecular Biology, 2025)
The list shows a part of the results. Small differences around the control level are noise.

Sequences of proteins named here, by UniProt entry; tags and fusion partners are left off. A change or cut given only in a name is not applied to a line headed by its entry.
UniProt P23475: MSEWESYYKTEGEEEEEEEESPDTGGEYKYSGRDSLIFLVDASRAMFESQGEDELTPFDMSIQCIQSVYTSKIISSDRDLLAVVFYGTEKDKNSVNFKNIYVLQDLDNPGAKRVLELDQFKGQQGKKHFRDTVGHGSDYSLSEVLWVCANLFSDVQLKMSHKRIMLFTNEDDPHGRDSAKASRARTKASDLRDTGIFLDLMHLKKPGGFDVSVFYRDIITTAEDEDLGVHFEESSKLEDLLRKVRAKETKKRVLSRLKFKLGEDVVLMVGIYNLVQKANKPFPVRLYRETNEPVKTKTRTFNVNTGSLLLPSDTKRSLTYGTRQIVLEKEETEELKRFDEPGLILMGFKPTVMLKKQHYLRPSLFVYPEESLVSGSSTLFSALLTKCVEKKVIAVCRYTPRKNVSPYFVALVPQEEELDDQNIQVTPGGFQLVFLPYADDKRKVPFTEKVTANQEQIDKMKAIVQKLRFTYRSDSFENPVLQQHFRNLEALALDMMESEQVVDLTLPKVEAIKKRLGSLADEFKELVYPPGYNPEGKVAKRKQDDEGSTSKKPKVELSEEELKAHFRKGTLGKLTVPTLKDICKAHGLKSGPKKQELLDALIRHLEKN
UniProt P19536: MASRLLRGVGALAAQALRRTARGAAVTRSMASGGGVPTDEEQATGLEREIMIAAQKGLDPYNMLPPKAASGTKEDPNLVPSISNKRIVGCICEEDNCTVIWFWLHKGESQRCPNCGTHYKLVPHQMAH
UniProt P23506: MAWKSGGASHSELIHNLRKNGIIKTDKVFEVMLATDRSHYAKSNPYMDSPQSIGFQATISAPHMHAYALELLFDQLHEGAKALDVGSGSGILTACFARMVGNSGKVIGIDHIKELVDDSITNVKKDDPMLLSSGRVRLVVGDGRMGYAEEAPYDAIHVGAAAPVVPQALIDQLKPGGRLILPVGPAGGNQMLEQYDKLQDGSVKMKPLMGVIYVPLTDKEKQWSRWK
UniProt P16331: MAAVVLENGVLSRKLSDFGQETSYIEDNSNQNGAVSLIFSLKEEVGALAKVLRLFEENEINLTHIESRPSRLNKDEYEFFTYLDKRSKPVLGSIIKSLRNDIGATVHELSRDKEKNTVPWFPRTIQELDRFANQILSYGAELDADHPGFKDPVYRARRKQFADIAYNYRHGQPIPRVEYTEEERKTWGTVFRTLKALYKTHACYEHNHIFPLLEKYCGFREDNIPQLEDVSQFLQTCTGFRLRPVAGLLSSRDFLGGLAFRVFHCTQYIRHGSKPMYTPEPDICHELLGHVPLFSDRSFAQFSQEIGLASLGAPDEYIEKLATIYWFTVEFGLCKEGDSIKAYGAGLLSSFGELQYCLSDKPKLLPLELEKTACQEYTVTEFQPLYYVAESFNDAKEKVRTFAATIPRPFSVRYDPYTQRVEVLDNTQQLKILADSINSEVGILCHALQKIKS
UniProt P07091: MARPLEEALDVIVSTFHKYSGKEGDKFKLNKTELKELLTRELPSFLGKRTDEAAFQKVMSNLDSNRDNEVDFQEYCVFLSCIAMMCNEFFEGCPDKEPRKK
UniProt P15306, whole entry: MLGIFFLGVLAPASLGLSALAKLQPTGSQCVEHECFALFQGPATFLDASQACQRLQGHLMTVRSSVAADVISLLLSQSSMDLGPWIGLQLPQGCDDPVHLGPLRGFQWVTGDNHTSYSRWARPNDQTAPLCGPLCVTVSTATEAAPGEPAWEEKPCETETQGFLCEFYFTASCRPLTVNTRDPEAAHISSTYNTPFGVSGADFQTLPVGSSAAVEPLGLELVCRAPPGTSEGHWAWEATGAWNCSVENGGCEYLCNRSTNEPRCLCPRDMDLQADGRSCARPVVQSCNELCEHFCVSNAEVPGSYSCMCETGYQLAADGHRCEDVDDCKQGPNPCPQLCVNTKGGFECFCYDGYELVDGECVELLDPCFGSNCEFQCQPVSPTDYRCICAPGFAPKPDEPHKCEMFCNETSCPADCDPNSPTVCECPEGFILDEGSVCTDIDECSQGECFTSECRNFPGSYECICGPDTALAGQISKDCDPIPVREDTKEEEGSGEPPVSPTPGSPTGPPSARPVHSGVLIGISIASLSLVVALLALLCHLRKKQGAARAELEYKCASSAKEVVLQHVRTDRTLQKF
UniProt P01942: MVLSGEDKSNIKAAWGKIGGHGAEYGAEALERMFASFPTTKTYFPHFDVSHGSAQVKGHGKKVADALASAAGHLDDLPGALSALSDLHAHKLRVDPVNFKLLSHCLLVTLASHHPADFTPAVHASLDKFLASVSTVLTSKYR
UniProt P0DJF2: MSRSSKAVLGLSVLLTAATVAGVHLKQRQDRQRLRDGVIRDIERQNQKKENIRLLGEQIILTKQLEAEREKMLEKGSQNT
UniProt P19137: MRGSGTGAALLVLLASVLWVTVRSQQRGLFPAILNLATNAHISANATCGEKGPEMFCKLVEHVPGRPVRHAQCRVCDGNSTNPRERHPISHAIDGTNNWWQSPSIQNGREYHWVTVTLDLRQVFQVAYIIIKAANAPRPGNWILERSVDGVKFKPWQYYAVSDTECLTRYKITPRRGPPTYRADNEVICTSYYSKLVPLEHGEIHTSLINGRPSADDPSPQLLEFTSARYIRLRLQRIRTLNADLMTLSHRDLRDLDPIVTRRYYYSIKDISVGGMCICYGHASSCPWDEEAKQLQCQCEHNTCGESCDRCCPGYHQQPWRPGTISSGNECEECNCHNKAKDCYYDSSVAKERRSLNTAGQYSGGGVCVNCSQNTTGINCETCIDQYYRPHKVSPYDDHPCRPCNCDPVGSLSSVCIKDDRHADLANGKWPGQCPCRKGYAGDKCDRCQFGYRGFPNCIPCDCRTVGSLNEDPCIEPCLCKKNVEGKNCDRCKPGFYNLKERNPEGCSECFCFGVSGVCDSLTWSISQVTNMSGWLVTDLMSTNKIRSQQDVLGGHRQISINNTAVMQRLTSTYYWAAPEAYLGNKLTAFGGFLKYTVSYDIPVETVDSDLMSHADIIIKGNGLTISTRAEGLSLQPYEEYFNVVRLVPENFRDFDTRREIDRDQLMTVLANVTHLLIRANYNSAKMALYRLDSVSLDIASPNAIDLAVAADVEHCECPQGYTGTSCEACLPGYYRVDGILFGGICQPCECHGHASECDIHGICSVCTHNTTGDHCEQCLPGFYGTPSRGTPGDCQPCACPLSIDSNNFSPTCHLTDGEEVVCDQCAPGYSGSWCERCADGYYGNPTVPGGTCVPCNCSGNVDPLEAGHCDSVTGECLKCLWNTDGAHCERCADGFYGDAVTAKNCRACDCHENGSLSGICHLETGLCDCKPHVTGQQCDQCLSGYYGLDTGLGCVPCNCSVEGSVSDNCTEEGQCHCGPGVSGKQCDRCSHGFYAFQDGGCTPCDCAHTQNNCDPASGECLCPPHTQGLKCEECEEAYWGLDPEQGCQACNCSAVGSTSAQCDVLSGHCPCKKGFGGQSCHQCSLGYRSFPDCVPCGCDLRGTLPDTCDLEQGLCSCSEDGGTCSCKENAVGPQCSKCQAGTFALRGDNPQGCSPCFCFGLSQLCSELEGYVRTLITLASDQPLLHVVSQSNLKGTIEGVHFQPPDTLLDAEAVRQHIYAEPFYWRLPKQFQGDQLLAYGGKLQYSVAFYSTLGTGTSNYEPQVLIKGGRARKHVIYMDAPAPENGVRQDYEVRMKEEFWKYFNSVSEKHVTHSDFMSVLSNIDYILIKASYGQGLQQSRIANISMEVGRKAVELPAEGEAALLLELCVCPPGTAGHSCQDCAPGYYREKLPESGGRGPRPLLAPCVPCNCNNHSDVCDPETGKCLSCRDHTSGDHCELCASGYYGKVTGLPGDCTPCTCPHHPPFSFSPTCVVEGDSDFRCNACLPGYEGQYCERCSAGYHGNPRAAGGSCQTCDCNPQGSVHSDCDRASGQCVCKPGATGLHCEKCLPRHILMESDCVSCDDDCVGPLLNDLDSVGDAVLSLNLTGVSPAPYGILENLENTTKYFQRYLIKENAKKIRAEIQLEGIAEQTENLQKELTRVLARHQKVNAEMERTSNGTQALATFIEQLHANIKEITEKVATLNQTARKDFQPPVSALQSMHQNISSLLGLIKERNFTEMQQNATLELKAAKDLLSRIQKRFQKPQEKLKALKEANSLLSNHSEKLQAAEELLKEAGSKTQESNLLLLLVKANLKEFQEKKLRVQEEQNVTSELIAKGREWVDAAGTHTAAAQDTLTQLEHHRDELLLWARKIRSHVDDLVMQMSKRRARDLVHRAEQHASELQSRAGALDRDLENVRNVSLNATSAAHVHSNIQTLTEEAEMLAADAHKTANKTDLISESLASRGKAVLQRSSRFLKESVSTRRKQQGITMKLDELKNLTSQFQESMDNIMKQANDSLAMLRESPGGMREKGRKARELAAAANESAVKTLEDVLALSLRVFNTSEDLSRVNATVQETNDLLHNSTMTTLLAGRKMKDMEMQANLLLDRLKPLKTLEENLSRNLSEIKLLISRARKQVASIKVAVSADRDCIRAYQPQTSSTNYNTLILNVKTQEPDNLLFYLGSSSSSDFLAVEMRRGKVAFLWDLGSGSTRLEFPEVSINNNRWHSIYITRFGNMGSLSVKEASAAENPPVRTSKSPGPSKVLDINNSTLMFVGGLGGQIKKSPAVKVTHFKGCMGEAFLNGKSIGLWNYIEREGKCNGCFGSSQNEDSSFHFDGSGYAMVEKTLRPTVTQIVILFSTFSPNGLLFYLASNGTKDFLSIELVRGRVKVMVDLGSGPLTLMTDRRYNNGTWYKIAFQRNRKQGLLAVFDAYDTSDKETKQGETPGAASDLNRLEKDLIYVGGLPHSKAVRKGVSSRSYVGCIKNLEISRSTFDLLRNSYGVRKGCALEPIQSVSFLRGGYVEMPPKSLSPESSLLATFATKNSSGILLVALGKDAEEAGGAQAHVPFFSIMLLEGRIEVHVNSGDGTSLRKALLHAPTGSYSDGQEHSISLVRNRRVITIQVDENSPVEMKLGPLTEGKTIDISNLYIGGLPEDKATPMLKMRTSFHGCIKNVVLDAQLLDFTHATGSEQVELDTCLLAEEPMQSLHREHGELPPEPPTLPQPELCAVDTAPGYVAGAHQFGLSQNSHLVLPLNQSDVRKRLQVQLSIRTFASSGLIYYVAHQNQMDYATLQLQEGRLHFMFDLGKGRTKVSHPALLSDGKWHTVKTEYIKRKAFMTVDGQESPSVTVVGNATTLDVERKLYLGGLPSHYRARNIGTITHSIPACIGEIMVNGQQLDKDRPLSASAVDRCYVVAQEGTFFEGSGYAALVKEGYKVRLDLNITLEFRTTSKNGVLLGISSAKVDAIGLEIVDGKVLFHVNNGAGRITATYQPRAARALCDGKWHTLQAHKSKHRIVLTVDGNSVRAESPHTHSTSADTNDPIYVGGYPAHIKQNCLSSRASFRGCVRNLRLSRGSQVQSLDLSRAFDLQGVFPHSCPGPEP
UniProt P17439: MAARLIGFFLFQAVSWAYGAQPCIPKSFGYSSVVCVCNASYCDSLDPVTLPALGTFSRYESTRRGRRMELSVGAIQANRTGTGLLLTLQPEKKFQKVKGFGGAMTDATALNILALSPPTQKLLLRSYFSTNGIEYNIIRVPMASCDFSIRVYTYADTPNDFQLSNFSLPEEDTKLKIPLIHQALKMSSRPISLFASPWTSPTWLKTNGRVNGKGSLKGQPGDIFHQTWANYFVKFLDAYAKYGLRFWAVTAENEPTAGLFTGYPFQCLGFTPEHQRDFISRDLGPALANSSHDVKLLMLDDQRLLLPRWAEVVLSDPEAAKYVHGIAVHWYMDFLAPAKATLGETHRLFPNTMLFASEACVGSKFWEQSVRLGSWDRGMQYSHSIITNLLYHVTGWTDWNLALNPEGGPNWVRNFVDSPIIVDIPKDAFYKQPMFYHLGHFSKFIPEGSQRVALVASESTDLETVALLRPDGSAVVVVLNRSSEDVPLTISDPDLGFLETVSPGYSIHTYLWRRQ
UniProt P21981: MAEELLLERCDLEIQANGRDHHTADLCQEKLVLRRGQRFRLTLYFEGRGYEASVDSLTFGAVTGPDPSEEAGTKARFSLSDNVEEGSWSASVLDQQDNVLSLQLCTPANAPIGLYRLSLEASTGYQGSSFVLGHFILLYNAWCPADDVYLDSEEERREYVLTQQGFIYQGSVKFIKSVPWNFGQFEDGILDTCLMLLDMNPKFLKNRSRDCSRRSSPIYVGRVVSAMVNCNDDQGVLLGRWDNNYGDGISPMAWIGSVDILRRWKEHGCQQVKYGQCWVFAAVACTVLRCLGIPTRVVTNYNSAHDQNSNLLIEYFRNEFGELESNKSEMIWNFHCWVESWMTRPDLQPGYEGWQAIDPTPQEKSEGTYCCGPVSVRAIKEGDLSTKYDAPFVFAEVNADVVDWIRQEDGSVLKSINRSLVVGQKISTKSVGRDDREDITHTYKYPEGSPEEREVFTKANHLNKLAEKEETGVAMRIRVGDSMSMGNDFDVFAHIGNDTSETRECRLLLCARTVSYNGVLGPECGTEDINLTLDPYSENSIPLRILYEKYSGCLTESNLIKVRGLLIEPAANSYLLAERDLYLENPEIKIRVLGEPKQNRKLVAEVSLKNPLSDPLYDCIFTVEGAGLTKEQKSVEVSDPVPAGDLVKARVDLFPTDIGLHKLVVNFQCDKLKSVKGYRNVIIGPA

Each target was assayed with CN[C@@H]1C[C@H]2O[C@@](C)([C@@H]1OC)n1c3ccccc3c3c4c(c5c6ccccc6n2c5c31)C(=O)NC4 [staurosporine] (assay: log2 fold change of pooled soluble protein (PISA), ligand vs vehicle (log2 ratio); higher = more thermally stabilized). Conditions: ligand concentration: 20 uM; assay format: PISA pool 52.9/55.5/58.6 C.

Question: With UniProt P23475 as the target, how does the “log2 fold change of pooled soluble protein” value (shortened to “log2 fold change”) read?
Answer: The value was 0.0886.

Question: Which “log2 fold change” value does the source give for UniProt P19536 here?
Answer: The value was -0.11.

Question: With UniProt P21278 as the target, how does the “log2 fold change” value read?
Answer: Its value is -0.0421.

Question: With UniProt P09405 as the target, how does the “log2 fold change” value read?
Answer: Its value is -0.00866.

Question: UniProt P0C7L0 was tested. Which “log2 fold change” value did it give?
Answer: Its value is -0.0861.

Question: With UniProt P23506 as the target, how does the “log2 fold change” value read?
Answer: Its value is 0.0799.

Question: UniProt P12790 was tested. Which “log2 fold change” value did it give?
Answer: The value was 0.0433.

Question: UniProt P21550 was tested. Which “log2 fold change” value did it give?
Answer: The value was -0.179.

Question: Which “log2 fold change” value does the source give for UniProt P07310 here?
Answer: Its value is -0.129.

Question: How did the “log2 fold change” value turn out when UniProt P14206 was run?
Answer: Its value is -0.0487.

Question: Which “log2 fold change” value does the source give for UniProt P26516 here?
Answer: Its value is 0.136.

Question: UniProt P16546 was tested. Which “log2 fold change” value did it give?
Answer: Its value is -0.0236.

Question: With UniProt P15327 as the target, how does the “log2 fold change” value read?
Answer: Its value is 0.115.

Question: With UniProt P24638 as the target, how does the “log2 fold change” value read?
Answer: The value was 0.0626.

Question: Which “log2 fold change” value does the source give for UniProt P16331 here?
Answer: The value was 0.165.

Question: How did the “log2 fold change” value turn out when UniProt P07091 was run?
Answer: The value was -0.174.

Question: UniProt P18572 was tested. Which “log2 fold change” value did it give?
Answer: Its value is 0.034.

Question: Which “log2 fold change” value does the source give for UniProt P16301 here?
Answer: The value was 0.0901.

Question: With UniProt P15306 as the target, how does the “log2 fold change” value read?
Answer: The value was 0.351.

Question: With UniProt P11609 as the target, how does the “log2 fold change” value read?
Answer: The value was 0.103.

Question: How did the “log2 fold change” value turn out when UniProt P05977 was run?
Answer: The value was -0.614.

Question: With UniProt P15379 as the target, how does the “log2 fold change” value read?
Answer: Its value is 0.361.

Question: With UniProt P01942 as the target, how does the “log2 fold change” value read?
Answer: The value was -0.00104.

Question: UniProt P06151 was tested. Which “log2 fold change” value did it give?
Answer: Its value is 0.0183.

Question: UniProt P17047 was tested. Which “log2 fold change” value did it give?
Answer: The value was -0.0253.

Question: How did the “log2 fold change” value turn out when UniProt P0DJF2 was run?
Answer: Its value is -0.0753.

Question: UniProt P19137 was tested. Which “log2 fold change” value did it give?
Answer: The value was -0.104.

Question: For UniProt P17563, which “log2 fold change” value is on record?
Answer: Its value is 0.0997.

Question: Which “log2 fold change” value does the source give for UniProt P16675 here?
Answer: Its value is -0.471.

Question: Which “log2 fold change” value does the source give for UniProt P08101 here?
Answer: The value was 0.0464.

Question: UniProt P10639 was tested. Which “log2 fold change” value did it give?
Answer: Its value is 0.206.

Question: UniProt P11859 was tested. Which “log2 fold change” value did it give?
Answer: Its value is -0.0928.

Question: With UniProt P11714 as the target, how does the “log2 fold change” value read?
Answer: Its value is 0.149.

Question: For UniProt P17439, which “log2 fold change” value is on record?
Answer: Its value is 0.147.

Question: With UniProt P26043 as the target, how does the “log2 fold change” value read?
Answer: Its value is -0.0864.

Question: How did the “log2 fold change” value turn out when UniProt P21981 was run?
Answer: Its value is -0.121.

Question: For UniProt P14873, which “log2 fold change” value is on record?
Answer: The value was -0.36.
